# Reference: PubChem BioAssay (NCATS)
# Sequences of proteins named here, by UniProt entry; tags and fusion partners are left off. A change or cut given only in a name is not applied to a line headed by its entry.
# UniProt Q8JUX6: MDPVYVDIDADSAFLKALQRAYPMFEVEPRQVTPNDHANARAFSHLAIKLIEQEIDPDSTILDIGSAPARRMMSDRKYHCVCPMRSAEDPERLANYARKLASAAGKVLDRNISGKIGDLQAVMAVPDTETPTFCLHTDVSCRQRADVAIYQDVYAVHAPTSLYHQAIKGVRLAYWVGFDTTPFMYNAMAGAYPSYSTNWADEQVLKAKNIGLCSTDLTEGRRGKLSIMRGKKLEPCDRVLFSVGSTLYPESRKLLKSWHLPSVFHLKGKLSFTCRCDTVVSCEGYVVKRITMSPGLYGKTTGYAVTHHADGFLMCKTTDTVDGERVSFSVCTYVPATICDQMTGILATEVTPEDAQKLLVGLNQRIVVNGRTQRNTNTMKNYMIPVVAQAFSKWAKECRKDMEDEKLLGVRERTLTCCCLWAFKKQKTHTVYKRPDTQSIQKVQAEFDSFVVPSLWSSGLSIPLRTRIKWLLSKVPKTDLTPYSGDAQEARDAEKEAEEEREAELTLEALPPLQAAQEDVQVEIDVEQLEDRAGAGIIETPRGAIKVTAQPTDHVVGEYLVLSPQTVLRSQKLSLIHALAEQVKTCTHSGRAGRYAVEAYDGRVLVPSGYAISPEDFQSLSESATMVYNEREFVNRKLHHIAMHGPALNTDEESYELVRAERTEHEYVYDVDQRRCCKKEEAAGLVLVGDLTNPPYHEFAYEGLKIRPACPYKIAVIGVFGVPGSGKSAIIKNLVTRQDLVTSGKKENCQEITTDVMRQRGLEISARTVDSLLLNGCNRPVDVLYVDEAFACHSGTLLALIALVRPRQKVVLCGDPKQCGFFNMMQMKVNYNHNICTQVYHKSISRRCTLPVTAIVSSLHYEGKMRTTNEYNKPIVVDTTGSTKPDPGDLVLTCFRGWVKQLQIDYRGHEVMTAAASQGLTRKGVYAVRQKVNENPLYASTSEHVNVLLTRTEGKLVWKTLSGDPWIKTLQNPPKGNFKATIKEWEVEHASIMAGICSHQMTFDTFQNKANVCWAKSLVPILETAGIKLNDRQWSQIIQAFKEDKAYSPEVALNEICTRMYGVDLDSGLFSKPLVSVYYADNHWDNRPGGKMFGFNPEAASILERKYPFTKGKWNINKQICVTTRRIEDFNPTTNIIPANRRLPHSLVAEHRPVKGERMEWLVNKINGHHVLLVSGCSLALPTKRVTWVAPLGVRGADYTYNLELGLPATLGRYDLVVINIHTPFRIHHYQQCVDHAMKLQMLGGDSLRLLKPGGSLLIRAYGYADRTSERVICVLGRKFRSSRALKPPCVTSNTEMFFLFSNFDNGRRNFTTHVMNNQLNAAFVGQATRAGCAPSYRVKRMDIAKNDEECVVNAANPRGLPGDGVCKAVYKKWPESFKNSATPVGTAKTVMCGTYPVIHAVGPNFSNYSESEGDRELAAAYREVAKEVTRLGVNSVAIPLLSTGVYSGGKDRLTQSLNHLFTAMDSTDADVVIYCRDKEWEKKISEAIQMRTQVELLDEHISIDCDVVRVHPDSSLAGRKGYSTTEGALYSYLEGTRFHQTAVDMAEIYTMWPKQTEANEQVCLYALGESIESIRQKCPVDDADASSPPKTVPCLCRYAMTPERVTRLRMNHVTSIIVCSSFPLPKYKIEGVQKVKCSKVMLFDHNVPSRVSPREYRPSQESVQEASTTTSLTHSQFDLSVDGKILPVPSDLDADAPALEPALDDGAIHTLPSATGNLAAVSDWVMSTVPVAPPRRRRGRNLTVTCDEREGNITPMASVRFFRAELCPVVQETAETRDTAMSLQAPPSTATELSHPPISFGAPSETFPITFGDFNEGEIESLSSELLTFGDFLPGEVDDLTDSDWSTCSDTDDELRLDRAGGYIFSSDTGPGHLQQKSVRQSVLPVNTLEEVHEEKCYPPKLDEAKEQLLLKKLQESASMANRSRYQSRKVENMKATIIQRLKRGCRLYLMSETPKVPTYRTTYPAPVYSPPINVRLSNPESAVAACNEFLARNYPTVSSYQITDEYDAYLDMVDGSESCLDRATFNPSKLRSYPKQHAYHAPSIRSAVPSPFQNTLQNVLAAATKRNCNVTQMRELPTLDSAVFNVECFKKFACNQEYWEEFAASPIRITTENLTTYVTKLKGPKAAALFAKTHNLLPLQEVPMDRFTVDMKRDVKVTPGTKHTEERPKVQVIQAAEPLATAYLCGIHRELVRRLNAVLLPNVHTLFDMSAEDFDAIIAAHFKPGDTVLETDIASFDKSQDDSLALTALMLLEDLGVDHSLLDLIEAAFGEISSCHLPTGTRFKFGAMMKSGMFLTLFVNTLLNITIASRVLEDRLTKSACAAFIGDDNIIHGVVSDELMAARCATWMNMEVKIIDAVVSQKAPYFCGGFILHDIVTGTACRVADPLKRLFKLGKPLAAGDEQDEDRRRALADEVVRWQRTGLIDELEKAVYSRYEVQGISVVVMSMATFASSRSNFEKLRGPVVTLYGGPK
# UniProt P00784: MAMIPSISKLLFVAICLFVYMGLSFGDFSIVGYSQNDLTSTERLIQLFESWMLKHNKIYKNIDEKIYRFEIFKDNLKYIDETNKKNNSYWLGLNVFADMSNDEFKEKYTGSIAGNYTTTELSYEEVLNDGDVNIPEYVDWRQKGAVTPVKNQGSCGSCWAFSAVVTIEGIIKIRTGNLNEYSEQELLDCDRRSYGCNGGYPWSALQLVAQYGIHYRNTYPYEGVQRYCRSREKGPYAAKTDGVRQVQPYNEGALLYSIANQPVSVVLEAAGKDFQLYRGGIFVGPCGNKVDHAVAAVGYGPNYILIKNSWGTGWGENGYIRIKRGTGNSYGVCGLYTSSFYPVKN
# Inconclusive results, whose numbers are uncertain, are shown with a selection of clear calls. For part of these data: Where the call is inconclusive, the potency comes from a doubtful curve fit. Activity calls are given as the source filed them. Calls follow the shape of the full dose curve.
# Legend:
# [1] = target: Polyprotein P1234 (Chikungunya virus (strain S27-African prototype)) (UniProt Q8JUX6); assay: Selectivity profile for inhibitors of NSP2Pro chikungunya virus (CHIKV): Endogenous NS2/3 peptide Counterscreen (AID 1964103); also: nearly all actives have a fitted effect of over 55% in size; also: potency is read from the fitted curve at half-maximal effect
# [2] = tested on: Chikungunya virus nsP2 protease; assay: Confirmatory qHTS for inhibitors of NSP2Pro chikungunya virus (CHIKV) (AID 1964105); also: nearly all actives have a fitted effect of over 75% in size; also: potency is read from the fitted curve at half-maximal effect
# [3] = tested on: Hepatitis C virus NS3/4A protease; assay: Selectivity profile for inhibitors of NSP2Pro chikungunya virus (CHIKV): NS34A-HCV Counterscreen (AID 1964106); conditions: activity change, negative = inhibition: at 50.9 µM (top of the series) unless noted; also: potency is read from the fitted curve at half-maximal effect; nearly all actives have a fitted effect of over 55% in size
# [4] = target: Papain (Carica papaya) (UniProt P00784); assay: Selectivity profile for inhibitors of NSP2Pro chikungunya virus (CHIKV): Papain Counterscreen (AID 1964104)
structure (smiles),measurement,setting,value
Oc1c(Br)cc(Br)cc1CNC1CCC(O)CC1 (stereo not drawn),Potency,[1],inactive
same,Potency,[2],inactive
O=C(O)CCc1ccc(-c2cccs2)n1CC(=O)Nc1ccccc1C(F)(F)F,Potency,[1],inactive
same,Potency,[2],"inconclusive: 8.96 µM [inhibitor, partial curve, poor fit]"
CCOc1cc(S(=O)(=O)n2ccnc2C(C)C)ccc1Cl,Potency,[1],"inconclusive: 20.6 µM [inhibitor, partial curve]"
same,Potency,[3],active: 9.19 µM
CC(O)c1ccc(-c2ccc3ncnc(NCc4nccs4)c3c2)o1 (stereo not drawn),Potency,[4],inactive
same,Potency,[2],inactive
O=C(NC1CCCc2c1cnn2-c1ccc(F)cc1F)c1ccccn1 (stereo not drawn),Potency,[4],inactive
O=C(Nc1ccc(N2CCC(c3ccccc3)C2)c(C(=O)O)c1)c1ccc(Cl)cc1 (stereo not drawn),Potency,[1],active: 11.6 µM
same,Potency,[2],active: 7.11 µM
CCC[C@H](NC(=O)[C@@H]1[C@H]2CCC[C@H]2CN1C(=O)[C@@H](NC(=O)[C@@H](NC(=O)c1cnccn1)C1CCCCC1)C(C)(C)C)C(=O)C(=O)NC1CC1,Potency,[1],"inconclusive: 20.6 µM [inhibitor, single point]"
same,Potency,[3],active: 0.0517 µM
Cc1cc(C)nc(NC(=S)N2CCN(c3ccc4nsnc4c3)CC2)c1,Potency,[4],inactive
CC(C)=CCCC1(C)C=Cc2c(O)c3c(c(CC=C(C)C)c2O1)OC12C(=CC4CC1C(C)(C)OC2(C/C=C(/C)C(=O)O)C4=O)C3=O (stereo not drawn),Potency,[1],"inconclusive: 32.6 µM [inhibitor, partial curve, poor fit]"
same,Potency,[2],"inconclusive: 7.11 µM [inhibitor, partial curve]"
CC/C=C\C/C=C\C/C=C\C/C=C\C/C=C\CCCC(=O)O,Potency,[1],"inconclusive: 37.5 µM [inhibitor, partial curve]"
same,Potency,[2],active: 8.19 µM

# For reference, some entries already given.
structure (smiles),measurement,setting,value
CC(O)c1ccc(-c2ccc3ncnc(NCc4nccs4)c3c2)o1 (stereo not drawn),Potency,[4],inactive
same,Potency,[2],inactive
O=C(NC1CCCc2c1cnn2-c1ccc(F)cc1F)c1ccccn1 (stereo not drawn),Potency,[4],inactive
